According to the supplement of paper PMC10849652:
This is one part of the list.

By UniProt entry, the sequences of proteins in these tests, tags left out. Where a name states a change or a piece, a line headed by the entry shows the natural chain unless it says otherwise.
UniProt Q68CR1: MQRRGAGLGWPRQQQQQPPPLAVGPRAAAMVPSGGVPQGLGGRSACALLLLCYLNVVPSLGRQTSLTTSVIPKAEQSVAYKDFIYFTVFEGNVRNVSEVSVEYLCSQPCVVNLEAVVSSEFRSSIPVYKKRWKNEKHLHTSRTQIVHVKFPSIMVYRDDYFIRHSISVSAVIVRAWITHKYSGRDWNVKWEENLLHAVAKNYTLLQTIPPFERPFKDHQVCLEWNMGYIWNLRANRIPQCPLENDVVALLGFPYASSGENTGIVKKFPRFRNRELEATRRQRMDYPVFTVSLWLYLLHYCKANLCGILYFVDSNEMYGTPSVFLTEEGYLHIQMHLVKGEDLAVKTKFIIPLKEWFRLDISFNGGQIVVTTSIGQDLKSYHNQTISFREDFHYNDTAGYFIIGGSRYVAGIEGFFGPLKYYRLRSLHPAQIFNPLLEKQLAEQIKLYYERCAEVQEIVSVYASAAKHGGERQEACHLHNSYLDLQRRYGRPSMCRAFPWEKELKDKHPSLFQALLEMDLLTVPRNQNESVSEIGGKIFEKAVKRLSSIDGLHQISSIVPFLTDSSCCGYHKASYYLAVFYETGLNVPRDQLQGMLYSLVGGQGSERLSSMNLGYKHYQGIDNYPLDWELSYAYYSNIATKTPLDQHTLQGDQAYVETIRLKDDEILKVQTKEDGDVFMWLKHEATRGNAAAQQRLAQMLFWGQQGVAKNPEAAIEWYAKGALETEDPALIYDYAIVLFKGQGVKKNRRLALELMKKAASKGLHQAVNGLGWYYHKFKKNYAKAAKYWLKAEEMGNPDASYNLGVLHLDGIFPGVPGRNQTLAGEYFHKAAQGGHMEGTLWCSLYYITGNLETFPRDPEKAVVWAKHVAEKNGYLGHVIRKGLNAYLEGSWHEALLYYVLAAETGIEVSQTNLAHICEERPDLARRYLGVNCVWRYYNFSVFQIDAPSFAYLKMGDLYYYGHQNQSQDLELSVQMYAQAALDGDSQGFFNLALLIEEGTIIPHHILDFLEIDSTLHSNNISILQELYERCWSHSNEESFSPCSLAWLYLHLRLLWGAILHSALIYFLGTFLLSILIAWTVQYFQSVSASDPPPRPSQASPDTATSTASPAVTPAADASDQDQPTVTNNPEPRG
UniProt P36955: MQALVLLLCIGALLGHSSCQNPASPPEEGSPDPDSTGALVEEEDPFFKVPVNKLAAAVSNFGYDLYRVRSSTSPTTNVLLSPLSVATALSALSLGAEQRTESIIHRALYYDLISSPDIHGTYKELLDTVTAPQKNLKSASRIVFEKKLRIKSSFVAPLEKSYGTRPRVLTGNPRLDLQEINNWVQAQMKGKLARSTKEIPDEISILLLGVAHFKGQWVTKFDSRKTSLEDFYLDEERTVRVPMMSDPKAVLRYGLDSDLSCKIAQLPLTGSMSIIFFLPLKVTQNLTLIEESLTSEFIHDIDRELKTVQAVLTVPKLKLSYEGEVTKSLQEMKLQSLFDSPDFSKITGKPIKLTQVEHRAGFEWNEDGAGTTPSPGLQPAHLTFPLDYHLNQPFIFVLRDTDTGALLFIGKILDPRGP
UniProt Q9UQ13: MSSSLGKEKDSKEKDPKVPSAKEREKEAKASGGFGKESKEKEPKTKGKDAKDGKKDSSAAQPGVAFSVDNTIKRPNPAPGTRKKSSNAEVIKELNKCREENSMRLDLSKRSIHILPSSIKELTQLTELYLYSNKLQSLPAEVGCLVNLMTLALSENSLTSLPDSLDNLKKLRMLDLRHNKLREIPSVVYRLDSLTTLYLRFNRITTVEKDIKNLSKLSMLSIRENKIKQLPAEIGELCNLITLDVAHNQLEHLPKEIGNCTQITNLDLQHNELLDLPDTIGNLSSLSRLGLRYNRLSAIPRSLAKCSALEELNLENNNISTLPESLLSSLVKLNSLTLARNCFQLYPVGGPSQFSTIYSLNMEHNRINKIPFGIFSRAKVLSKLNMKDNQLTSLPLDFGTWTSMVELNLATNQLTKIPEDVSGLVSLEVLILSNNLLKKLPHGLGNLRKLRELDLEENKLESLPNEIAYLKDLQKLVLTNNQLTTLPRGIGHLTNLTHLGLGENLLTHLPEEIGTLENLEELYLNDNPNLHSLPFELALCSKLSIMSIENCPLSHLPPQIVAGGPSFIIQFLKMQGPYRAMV
UniProt O75368: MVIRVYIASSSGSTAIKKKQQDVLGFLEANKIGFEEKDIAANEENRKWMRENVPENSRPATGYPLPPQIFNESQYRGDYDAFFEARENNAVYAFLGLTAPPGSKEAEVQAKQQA
UniProt Q9GZR1: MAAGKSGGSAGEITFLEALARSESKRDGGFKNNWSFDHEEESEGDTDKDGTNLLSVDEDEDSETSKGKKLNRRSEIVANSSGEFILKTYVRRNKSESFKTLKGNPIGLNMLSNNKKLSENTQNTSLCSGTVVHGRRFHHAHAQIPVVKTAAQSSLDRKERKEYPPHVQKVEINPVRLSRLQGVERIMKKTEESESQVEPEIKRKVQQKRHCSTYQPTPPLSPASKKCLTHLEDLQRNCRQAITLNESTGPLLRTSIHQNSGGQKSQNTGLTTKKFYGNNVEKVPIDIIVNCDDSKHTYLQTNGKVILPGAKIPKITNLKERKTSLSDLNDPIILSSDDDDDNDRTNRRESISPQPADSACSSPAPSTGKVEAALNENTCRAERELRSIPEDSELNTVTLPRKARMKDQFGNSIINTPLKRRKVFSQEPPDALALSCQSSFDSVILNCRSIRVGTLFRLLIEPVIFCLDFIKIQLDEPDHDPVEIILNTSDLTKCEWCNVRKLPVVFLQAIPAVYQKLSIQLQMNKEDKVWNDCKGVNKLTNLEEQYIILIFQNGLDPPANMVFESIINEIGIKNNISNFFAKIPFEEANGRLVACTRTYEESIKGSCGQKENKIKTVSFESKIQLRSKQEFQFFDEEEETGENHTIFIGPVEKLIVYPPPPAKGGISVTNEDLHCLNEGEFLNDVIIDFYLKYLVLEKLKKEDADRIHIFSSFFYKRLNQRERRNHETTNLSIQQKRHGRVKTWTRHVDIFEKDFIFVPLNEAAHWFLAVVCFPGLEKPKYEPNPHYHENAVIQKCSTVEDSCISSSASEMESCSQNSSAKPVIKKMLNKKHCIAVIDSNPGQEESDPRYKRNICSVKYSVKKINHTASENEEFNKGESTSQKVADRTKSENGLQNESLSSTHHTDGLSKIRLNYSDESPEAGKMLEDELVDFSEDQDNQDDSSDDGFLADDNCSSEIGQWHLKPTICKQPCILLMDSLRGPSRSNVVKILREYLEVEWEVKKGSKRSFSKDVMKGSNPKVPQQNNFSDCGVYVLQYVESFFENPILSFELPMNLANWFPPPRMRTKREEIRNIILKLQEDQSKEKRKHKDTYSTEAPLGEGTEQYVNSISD
UniProt Q9UBV2: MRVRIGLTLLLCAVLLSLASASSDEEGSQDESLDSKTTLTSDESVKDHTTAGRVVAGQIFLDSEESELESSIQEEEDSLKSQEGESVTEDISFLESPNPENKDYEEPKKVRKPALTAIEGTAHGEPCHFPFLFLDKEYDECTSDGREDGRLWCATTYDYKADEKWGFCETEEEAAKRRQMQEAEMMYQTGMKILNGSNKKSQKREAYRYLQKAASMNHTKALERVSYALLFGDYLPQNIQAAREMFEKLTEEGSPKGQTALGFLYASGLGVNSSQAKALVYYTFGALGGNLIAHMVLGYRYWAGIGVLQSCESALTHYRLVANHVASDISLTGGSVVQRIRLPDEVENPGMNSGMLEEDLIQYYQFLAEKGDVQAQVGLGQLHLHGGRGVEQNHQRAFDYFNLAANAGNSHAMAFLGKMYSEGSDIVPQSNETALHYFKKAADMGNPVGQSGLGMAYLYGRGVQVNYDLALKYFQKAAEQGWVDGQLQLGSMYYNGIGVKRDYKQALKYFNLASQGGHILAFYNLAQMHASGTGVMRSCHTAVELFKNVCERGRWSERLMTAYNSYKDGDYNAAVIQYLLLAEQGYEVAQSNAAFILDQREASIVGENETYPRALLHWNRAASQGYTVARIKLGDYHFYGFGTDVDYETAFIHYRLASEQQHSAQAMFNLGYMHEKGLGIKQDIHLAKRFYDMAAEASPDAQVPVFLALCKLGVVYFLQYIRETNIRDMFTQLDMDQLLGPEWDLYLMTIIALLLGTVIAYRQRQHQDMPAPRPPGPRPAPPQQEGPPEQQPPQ
UniProt Q96ST3: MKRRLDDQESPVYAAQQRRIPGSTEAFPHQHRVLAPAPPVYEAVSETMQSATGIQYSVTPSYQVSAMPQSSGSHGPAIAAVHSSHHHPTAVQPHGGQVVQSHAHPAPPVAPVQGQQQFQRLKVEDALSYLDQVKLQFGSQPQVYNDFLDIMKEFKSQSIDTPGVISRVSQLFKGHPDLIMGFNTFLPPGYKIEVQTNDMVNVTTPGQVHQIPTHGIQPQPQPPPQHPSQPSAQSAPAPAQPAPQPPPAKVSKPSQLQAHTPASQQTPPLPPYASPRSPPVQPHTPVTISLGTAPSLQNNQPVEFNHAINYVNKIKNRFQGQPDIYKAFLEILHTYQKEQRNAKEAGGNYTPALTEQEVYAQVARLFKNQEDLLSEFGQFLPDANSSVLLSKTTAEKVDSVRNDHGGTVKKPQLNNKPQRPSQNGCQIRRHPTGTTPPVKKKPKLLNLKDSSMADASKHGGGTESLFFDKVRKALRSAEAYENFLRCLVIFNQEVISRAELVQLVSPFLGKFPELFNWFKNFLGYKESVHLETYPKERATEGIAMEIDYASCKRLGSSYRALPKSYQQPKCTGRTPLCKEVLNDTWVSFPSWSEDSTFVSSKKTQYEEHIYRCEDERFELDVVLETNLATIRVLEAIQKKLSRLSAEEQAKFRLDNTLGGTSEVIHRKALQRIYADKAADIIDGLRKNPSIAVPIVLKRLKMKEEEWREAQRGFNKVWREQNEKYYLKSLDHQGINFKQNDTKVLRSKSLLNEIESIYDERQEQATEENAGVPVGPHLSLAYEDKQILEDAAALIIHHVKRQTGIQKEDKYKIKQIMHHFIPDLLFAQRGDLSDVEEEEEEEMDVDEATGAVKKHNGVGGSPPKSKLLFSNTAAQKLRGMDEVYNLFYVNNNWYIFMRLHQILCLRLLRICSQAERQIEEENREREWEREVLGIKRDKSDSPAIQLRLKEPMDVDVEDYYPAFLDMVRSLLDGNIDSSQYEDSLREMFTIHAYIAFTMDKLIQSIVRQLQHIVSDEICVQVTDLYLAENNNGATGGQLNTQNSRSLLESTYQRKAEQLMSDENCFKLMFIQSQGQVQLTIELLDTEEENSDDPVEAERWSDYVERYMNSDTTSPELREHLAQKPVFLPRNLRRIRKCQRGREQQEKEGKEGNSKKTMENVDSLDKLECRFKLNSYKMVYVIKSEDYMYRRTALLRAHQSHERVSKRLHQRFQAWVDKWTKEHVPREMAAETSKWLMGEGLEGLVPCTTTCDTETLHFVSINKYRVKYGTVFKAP
UniProt O14796: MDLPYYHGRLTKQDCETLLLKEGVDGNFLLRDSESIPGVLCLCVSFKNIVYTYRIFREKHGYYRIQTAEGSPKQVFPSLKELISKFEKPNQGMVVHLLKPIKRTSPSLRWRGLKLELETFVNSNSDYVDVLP
UniProt Q99963: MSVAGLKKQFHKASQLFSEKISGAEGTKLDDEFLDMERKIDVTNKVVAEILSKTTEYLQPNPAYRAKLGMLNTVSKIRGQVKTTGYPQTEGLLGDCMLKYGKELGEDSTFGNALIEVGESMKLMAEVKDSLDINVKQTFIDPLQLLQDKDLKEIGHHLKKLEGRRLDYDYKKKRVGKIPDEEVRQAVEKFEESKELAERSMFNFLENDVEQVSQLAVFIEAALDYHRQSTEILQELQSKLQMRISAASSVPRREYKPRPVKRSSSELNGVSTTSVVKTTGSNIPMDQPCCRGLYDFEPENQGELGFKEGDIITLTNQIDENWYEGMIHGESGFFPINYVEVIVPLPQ
UniProt P51688: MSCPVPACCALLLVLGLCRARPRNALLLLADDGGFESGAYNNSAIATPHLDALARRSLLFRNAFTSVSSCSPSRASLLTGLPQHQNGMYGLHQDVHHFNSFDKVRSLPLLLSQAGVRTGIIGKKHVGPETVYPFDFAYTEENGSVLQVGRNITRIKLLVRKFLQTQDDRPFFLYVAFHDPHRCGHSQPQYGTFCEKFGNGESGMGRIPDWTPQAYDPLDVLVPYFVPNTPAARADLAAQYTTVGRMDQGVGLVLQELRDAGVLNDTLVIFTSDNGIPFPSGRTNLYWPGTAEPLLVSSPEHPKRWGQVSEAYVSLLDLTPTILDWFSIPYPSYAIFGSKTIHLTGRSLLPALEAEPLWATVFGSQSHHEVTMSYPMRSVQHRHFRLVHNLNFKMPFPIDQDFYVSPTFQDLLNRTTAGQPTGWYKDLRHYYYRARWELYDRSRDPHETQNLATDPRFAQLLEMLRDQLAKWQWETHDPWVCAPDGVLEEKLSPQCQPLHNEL

Tests used:
Experiment in all cases: log2 fold change, soluble protein after heating vs DMSO (PISA); higher = thermal stabilisation; K562 cells, 10 uM, 30 min; active = over 0.2 and 3.5 SD of the protein, either way, in both replicates (recomputed)
[1] = compound: C1=CC=C(C=C1)[C@H](COC2=CC3=C(C=C2)NC(=O)N3)NC(=O)C4=CC=CN(C4=O)CC5=CC(=C(C=C5)F)F
How it was run: (§1)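 Quantification of soluble protein used TMTpro 16plex LC-MS/MS, with channel sums equalised. Samples were the supernatant after 21,000xg for 90 min of pooled aliquots from K562 cells (2×10^6 cells/mL) treated with 10 μM compound for 30 min, heated for 3 min over 48°C-58°C, and extracted in PBS with 0.5% NP-40 at 4°C. Values, from duplicates, describe thermal stability against control samples on a log2 fold-change scale.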

[2] = compound: CC1=C(SC2=C1C(=N[C@H](C3=NN=C(N32)C)CC(=O)N)C4=CC=C(C=C4)Cl)C
How it was run: as §1

[3] = compound: CC1=C2C(=CC=C1)N=C(N(C2=O)C3=CC=CC=C3C)CN4C=NC5=C(N=CN=C54)N
How it was run: as §1

[4] = compound: Cc1sc2c(c1C)C(c1ccc(Cl)cc1)=N[C@@H](CC(=O)OC(C)(C)C)c1nnc(C)n1-2
How it was run: as §1

[5] = compound: c1ccc([C@@H]2C[C@H]2NC2CCNCC2)cc1
How it was run: as §1

Measured: log2 fold change

SEL1L3 (UniProt Q68CR1)
inactive: [1] -0.025 | [2] -0.071 | [3] 0.031 | [4] 0.163 | [5] 0.065

SERPINF1 (UniProt P36955)
inactive: [1] -0.099 | [2] 0.042 | [3] 0.007 | [4] 0.07 | [5] 0.022

SHOC2 (UniProt Q9UQ13)
inactive: [1] -0.009 | [2] 0.034 | [3] 0.113 | [4] -0.049 | [5] -0.071

SH3BGRL (UniProt O75368)
inactive: [1] -0.003 | [2] 0.093 | [3] 0.062 | [4] -0.108 | [5] 0.026

SENP6 (UniProt Q9GZR1)
inactive: [1] 0.023 | [2] 0.014 | [3] 0.048 | [4] 0.022 | [5] 0.056

SEL1L (UniProt Q9UBV2)
inactive: [1] -0.035 | [2] -0.008 | [3] 0.009 | [4] -0.005 | [5] -0.006

SIN3A (UniProt Q96ST3)
inactive: [1] -0.08 | [2] -0.063 | [3] -0.046 | [4] 0 | [5] 0.077

SH2D3A (UniProt Q9BRG2)
inactive: [3] -0.061

SH2D1B (UniProt O14796)
inactive: [2] 0.205 | [3] -0.047 | [4] 0.003 | [5] 0.033

SETD2 (UniProt Q9BYW2)
inactive: [4] 0.014

SHB (UniProt Q15464)
inactive: [1] -0.121 | [2] -0.125 | [4] -0.138 | [5] 0.051

SH3GL3 isoform 3 (UniProt Q99963)
inactive: [3] 0.123 | [4] -0.108

Random excerpt: 2 entries already listed.
SETD2 (UniProt Q9BYW2)
inactive: [4] 0.014

SH3GL3 isoform 3 (UniProt Q99963)
inactive: [3] 0.123 | [4] -0.108

The listing continues.

SGSH (UniProt P51688)
inactive: [2] -0.051 | [5] 0.073
